This is one part of the list.

Protein sequences, listed by entry. Tags and fused reporters are not part of them. Lines headed by an entry give the natural chain unless they say otherwise; changes in a name come on top.
UniProt Q8NBQ5: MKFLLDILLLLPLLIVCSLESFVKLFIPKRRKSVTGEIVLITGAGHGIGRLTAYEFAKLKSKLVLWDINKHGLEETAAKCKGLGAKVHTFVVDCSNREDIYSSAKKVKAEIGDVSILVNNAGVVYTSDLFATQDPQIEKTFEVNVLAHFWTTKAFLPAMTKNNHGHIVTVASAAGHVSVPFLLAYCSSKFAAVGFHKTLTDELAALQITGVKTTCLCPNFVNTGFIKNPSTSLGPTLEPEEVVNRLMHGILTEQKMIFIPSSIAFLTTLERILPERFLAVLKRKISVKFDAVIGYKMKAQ
UniProt Q92598: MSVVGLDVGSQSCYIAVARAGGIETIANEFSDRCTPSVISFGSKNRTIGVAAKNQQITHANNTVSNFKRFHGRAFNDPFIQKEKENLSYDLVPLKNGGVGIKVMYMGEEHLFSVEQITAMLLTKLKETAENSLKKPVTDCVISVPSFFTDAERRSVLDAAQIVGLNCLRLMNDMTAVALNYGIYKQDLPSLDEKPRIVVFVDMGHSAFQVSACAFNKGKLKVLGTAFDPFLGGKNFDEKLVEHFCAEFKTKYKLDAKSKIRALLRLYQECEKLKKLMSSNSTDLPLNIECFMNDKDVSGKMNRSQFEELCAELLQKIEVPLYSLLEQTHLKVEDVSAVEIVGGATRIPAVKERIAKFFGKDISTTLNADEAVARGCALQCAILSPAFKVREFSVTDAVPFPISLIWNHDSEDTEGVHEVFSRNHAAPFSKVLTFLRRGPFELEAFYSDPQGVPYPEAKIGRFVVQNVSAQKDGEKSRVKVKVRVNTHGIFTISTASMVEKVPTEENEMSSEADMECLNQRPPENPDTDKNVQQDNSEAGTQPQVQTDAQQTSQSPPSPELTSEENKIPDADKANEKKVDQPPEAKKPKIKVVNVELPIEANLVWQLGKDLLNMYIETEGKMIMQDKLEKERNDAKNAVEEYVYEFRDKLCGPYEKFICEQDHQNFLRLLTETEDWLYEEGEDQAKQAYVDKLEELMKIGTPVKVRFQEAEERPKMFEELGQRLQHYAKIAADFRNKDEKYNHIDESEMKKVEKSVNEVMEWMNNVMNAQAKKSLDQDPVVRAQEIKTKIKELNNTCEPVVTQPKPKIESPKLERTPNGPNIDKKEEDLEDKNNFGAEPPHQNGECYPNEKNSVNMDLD
UniProt Q99714: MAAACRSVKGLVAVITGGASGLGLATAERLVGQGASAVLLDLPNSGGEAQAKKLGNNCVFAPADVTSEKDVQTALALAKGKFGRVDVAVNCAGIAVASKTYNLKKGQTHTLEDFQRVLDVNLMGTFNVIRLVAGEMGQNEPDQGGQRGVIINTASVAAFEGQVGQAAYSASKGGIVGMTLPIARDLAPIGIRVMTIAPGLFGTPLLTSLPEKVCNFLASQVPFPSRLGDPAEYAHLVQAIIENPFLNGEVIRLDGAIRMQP
UniProt P38646: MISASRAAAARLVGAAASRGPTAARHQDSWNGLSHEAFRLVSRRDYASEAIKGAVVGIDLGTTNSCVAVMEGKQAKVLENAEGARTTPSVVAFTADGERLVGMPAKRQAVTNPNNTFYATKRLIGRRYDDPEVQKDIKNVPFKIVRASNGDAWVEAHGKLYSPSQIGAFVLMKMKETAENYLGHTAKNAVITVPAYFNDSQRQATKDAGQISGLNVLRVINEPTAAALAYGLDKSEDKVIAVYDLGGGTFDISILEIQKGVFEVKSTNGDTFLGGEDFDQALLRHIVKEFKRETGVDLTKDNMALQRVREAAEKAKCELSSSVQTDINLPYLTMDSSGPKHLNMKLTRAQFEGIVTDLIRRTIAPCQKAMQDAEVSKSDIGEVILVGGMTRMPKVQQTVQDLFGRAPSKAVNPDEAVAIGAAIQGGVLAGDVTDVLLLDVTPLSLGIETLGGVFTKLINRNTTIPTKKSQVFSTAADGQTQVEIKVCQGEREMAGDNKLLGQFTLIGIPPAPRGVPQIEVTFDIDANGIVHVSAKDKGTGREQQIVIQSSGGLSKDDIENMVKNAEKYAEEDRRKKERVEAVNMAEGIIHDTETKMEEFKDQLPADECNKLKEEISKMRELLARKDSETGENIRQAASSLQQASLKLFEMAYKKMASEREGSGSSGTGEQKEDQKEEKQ
UniProt P11021: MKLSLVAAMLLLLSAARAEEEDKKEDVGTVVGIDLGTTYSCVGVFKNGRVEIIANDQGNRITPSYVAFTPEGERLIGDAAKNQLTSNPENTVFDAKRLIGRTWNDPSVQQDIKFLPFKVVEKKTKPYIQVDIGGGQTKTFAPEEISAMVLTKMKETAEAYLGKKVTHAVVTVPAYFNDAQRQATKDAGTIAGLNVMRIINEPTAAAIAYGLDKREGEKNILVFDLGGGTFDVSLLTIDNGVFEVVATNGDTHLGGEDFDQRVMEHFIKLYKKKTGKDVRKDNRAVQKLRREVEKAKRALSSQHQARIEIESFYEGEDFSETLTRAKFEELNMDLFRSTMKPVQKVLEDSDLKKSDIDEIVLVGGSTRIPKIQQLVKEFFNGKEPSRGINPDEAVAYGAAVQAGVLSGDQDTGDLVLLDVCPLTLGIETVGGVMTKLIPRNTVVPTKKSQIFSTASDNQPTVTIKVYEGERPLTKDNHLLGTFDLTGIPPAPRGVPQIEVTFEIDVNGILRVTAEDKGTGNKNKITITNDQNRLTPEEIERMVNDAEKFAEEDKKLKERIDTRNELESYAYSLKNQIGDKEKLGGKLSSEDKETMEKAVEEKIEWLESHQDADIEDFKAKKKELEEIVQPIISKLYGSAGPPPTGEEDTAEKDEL
UniProt O14979: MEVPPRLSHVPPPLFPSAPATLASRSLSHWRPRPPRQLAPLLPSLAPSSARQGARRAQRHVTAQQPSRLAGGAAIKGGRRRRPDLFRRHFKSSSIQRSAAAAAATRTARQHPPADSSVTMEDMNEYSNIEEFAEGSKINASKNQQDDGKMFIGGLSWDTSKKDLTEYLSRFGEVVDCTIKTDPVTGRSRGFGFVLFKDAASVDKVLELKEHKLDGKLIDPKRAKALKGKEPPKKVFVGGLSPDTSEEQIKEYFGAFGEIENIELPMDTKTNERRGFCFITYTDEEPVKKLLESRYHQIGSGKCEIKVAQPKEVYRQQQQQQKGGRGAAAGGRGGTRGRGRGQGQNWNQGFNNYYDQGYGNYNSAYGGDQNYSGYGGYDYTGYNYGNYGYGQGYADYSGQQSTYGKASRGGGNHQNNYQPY
UniProt P42858, whole entry, looked up: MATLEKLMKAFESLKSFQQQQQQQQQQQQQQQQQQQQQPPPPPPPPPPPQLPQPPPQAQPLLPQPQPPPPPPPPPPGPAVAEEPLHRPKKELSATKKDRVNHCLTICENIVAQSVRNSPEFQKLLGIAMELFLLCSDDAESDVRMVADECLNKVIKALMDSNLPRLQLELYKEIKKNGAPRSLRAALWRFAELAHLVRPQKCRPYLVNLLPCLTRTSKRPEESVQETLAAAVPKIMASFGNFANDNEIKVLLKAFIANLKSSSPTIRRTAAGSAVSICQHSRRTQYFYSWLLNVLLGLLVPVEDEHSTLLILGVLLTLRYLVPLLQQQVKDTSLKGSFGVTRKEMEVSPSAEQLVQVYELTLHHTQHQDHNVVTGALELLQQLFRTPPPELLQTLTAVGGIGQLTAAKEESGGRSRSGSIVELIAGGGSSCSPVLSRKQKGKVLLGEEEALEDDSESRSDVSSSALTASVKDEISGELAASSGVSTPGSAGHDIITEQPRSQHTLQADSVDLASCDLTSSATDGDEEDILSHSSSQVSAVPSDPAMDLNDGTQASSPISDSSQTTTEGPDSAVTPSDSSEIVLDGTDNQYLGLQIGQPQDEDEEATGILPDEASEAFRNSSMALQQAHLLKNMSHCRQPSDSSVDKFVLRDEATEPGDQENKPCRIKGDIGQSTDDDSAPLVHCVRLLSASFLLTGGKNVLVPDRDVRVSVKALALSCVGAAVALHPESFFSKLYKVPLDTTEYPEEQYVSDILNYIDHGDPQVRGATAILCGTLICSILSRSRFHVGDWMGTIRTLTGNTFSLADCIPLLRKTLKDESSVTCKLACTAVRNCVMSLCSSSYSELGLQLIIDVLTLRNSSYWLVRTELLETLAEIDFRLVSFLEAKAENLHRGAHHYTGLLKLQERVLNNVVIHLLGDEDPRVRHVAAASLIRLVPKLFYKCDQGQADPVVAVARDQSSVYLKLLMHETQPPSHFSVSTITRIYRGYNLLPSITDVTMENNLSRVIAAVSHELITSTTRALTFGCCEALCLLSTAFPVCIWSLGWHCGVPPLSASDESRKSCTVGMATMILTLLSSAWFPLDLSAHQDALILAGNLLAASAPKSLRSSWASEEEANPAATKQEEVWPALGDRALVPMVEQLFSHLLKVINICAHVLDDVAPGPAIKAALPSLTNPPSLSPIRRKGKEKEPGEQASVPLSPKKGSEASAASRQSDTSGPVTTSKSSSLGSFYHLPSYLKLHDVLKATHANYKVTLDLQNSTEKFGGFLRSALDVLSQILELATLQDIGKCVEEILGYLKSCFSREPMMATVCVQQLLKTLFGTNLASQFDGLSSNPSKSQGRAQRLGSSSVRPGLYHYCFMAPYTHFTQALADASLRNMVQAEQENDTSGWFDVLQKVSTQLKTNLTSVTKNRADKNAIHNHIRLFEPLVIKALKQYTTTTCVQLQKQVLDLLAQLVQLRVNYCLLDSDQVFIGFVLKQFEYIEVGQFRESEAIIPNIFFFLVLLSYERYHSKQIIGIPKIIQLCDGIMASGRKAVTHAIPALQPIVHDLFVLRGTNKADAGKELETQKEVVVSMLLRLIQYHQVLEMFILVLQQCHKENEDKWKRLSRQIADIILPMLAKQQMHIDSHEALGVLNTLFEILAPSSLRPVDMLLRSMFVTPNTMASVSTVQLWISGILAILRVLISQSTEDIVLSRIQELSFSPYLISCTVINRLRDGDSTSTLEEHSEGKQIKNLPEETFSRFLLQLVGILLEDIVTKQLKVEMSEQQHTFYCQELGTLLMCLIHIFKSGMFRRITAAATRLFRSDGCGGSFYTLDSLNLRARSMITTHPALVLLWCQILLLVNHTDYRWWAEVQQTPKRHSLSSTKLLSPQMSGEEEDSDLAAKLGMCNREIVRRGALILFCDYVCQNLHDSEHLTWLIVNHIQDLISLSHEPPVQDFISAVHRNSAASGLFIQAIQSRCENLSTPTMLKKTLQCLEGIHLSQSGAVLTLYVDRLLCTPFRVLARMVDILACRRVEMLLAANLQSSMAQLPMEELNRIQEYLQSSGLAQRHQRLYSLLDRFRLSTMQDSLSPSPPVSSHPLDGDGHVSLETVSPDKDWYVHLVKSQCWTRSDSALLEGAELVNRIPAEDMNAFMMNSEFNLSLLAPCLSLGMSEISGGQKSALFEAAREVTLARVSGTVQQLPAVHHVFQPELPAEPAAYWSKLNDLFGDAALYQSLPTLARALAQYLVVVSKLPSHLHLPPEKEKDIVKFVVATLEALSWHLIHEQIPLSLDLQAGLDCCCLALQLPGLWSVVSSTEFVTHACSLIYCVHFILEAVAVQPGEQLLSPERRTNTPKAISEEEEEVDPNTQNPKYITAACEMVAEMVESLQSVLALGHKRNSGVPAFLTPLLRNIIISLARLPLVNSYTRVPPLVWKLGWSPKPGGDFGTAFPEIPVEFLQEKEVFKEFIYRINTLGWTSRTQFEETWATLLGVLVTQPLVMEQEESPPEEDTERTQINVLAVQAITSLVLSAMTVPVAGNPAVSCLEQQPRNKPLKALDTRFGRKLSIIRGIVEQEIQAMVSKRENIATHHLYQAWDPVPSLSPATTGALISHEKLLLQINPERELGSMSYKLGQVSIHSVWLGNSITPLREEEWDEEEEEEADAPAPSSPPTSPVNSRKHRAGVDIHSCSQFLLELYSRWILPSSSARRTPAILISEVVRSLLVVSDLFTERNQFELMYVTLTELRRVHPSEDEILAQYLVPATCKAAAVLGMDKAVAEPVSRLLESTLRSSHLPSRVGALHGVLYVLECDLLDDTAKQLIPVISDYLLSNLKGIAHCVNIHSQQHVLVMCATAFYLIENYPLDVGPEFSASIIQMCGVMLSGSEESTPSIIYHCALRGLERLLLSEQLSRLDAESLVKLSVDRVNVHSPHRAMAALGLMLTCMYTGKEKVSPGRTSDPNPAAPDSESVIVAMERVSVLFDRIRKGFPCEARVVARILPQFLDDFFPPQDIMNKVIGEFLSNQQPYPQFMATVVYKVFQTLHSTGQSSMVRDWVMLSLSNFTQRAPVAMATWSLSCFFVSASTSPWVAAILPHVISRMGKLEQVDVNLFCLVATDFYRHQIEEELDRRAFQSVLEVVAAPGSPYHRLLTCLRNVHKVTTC
UniProt Q9BUP3: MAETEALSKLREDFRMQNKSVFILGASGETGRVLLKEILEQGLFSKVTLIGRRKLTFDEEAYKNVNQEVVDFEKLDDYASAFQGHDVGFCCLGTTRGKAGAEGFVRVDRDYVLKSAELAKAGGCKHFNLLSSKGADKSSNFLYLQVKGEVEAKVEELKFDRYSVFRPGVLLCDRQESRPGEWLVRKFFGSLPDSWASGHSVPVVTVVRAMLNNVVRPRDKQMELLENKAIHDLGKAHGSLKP

The values below come from the supplement of paper PMC12067093, “Discovery and optimisation of a covalent ligand for TRIM25 and its application to targeted protein ubiquitination” (Chemical Science, 2025).
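Note: competitive profiling in live THP-1 cells: cysteine peptides tagged with an iodoacetamide desthiobiotin (IA-DTB) probe, intensity after compound treatment relative to DMSO-treated cells.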

Compound in one test: Cc1cc(ccc1-c1ccccc1)C(=O)N1CCCN(CC1)C(=O)CCl [compound 10]
Kind of test: probe-labelled cysteine peptide fold change vs DMSO (competition) (log2 fold change); higher = less target engagement (more negative = stronger competition). Particulars: 10 µM; THP-1; incubation time: 4 h.
On to “HSPD1_P10809_447_CIPALDSLTPANEDQK (UniProt P10809)”, for which the “probe-labelled cysteine peptide fold change” value was 0.156.
On the same count and under the same terms, as for “HSP90AB1_P08238_521_RGFEVVYMTEPIDEYCVQQLK (UniProt P08238)”, the figure is -0.0663; as for “HPS3_Q969F9_831_TSEDLINACSHYGLIYPWVHVVISSDSLADK (UniProt Q969F9)”, 0.0684; as for “HSP90AB1_P08238_366_RVFIMDSCDELIPEYLNFIR (UniProt P08238)”, -0.0427.
As for “HSP90AA1_P07900_597+598_LVTSPCCIVTSTYGWTANMER (UniProt P07900)”, the “probe-labelled cysteine peptide fold change” value worked out at 0.115.
Turning to “HPS6_Q86YV9_141_LVWCEER (UniProt Q86YV9)”, the “probe-labelled cysteine peptide fold change” value is -0.106.
Same read-out and setting: as for “HSD17B11_Q8NBQ5_94_VHTFVVDCSNR (UniProt Q8NBQ5)”, the figure is 0.131.
Same read-out and setting: for “HSPH1_Q92598_658_FICEQDHQNFLR (UniProt Q92598)” the value was 0.242; for “HNRNPUL1_Q9BUJ2_532_KAIVICPTDEDLK (UniProt Q9BUJ2)”, -0.232; for “HSD17B10_Q99714_58_KLGNNCVFAPADVTSEK (UniProt Q99714)”, 0.0538.
The same measure, in the same setting: for “HSPA9_P38646_608_MEEFKDQLPADECNK (UniProt P38646)” the value was -0.0596; for “HNRNPU_Q00839_497_DCEVVMMIGLPGAGK (UniProt Q00839)”, 0.0826.
For the target “HSD17B10_Q99714_58_LGNNCVFAPADVTSEK (UniProt Q99714)”, the “probe-labelled cysteine peptide fold change” value was determined as 0.0652.
Same read-out and setting: as for “HSD17B10_Q99714_214_VCNFLASQVPFPSR (UniProt Q99714)”, the figure is 0.102.
In the case of “HPS4_Q9NQG7_183_ILQTCQR (UniProt Q9NQG7)”, the “probe-labelled cysteine peptide fold change” value was 0.23.
Still for that read-out and setting: for “HNRNPU_Q00839_594_KMCLFAGFQR (UniProt Q00839)” the value was -0.234.
On the same count and under the same terms, for “HSPA5_P11021_41_KEDVGTVVGIDLGTTYSCVGVFK (UniProt P11021)” the value was 0.209; for “HNRNPDL_O14979_177_FGEVVDCTIKTDPVTGR (UniProt O14979)”, -0.0962; for “HTT_P42858_1708_IQELSFSPYLISCTVINR (UniProt P42858)”, -0.256.
Same read-out and setting: as for “HNRNPH2_P55795_290_YGDGGSSFQSTTGHCVHMR (UniProt P55795)”, the figure is 0.0204; as for “HSP90AA1_P07900_374_RVFIMDNCEELIPEYLNFIR (UniProt P07900)”, -0.163.
“HNRNPU_Q00839_391_TCNCETEDYGEK (UniProt Q00839)”: the “probe-labelled cysteine peptide fold change” value came out at 0.325.
For “HNRNPUL2_Q1KMD3_57_LQEALDAEMLEDEAGGGGAGPGGACK (UniProt Q1KMD3)”, the “probe-labelled cysteine peptide fold change” value was -0.00448.
On the same count and under the same terms, as for “HTT_P42858_664_FVLRDEATEPGDQENKPCR (UniProt P42858)”, the figure is -0.112.
The same measure, in the same setting: as for “HNRNPR_O43390_292_GFCFLEYEDHK (UniProt O43390)”, the figure is 0.0419.
“HSPH1_Q92598_290_LMSSNSTDLPLNIECFMNDK (UniProt Q92598)”: the “probe-labelled cysteine peptide fold change” value is -0.144.
As to “HSP90AA1_P07900_529_HGLEVIYMIEPIDEYCVQQLK (UniProt P07900)”, the “probe-labelled cysteine peptide fold change” value is -0.0361.
Same read-out and setting: for “HMOX2_P30519_265_CPFYAAEQDK (UniProt P30519)” the value was -0.451.
For the target “HSPA9_P38646_317_CELSSSVQTDINLPYLTMDSSGPK (UniProt P38646)”, the “probe-labelled cysteine peptide fold change” value was determined as 0.0304.
Same read-out and setting: for “HNRNPA1L2_Q32P51_175_GHNCEVR (UniProt Q32P51)” the value was 0.196; for “HSPA4_P34932_779_ELTSTCSPIISKPKPK (UniProt P34932)”, -0.268.
Same read-out and setting: as for “HSD17B4_P51659_189_SNIHCNTIAPNAGSR (UniProt P51659)”, the figure is -0.0918.
Still for that read-out and setting: for “HNRNPU_Q00839_607_AVVVCPK (UniProt Q00839)” the value was -0.057; for “HTATIP2_Q9BUP3_90_LDDYASAFQGHDVGFCCLGTTR (UniProt Q9BUP3)”, 0.0592.
In the case of “HSD17B11_Q8NBQ5_217_TTCLCPNFVNTGFIK (UniProt Q8NBQ5)”, the “probe-labelled cysteine peptide fold change” value was determined as 0.0142.
Same read-out and setting: as for “HNRNPUL2_Q1KMD3_602_CDYMDEVTYGELEK (UniProt Q1KMD3)”, the figure is -0.1.

The same test, now with this note: 50 µM; THP-1; incubation time: 4 h.
Turning to “HSPD1_P10809_447_CIPALDSLTPANEDQK (UniProt P10809)”, the “probe-labelled cysteine peptide fold change” value is -0.0295.
For the target “HSP90AB1_P08238_521_RGFEVVYMTEPIDEYCVQQLK (UniProt P08238)”, the “probe-labelled cysteine peptide fold change” value was -0.262.
Same read-out and setting: as for “HPS3_Q969F9_831_TSEDLINACSHYGLIYPWVHVVISSDSLADK (UniProt Q969F9)”, the figure is 0.149.
Same read-out and setting: for “HSP90AB1_P08238_366_RVFIMDSCDELIPEYLNFIR (UniProt P08238)” the value was -0.153; for “HSP90AA1_P07900_597+598_LVTSPCCIVTSTYGWTANMER (UniProt P07900)”, -0.354; for “HPS6_Q86YV9_141_LVWCEER (UniProt Q86YV9)”, -0.266.
On the same count and under the same terms, for “HSD17B11_Q8NBQ5_94_VHTFVVDCSNR (UniProt Q8NBQ5)” the value was 0.129; for “HSPH1_Q92598_658_FICEQDHQNFLR (UniProt Q92598)”, 0.155; for “HNRNPUL1_Q9BUJ2_532_KAIVICPTDEDLK (UniProt Q9BUJ2)”, -0.995.
For “HSD17B10_Q99714_58_KLGNNCVFAPADVTSEK (UniProt Q99714)”, the “probe-labelled cysteine peptide fold change” value turned out to be 0.0693.
On to “HSPA9_P38646_608_MEEFKDQLPADECNK (UniProt P38646)”, for which the “probe-labelled cysteine peptide fold change” value was -0.692.
Still for that read-out and setting: as for “HNRNPU_Q00839_497_DCEVVMMIGLPGAGK (UniProt Q00839)”, the figure is 0.0394; as for “HSD17B10_Q99714_58_LGNNCVFAPADVTSEK (UniProt Q99714)”, 0.118; as for “HSD17B10_Q99714_214_VCNFLASQVPFPSR (UniProt Q99714)”, 0.0901.
Regarding “HPS4_Q9NQG7_183_ILQTCQR (UniProt Q9NQG7)”, the “probe-labelled cysteine peptide fold change” value was determined as 0.0373.
For “HNRNPU_Q00839_594_KMCLFAGFQR (UniProt Q00839)”, the “probe-labelled cysteine peptide fold change” value was -0.822.
On the same count and under the same terms, for “HSPA5_P11021_41_KEDVGTVVGIDLGTTYSCVGVFK (UniProt P11021)” the value was 0.548.
On the same count and under the same terms, for “HNRNPDL_O14979_177_FGEVVDCTIKTDPVTGR (UniProt O14979)” the value was -0.952; for “HTT_P42858_1708_IQELSFSPYLISCTVINR (UniProt P42858)”, 0.155.
Consider “HNRNPH2_P55795_290_YGDGGSSFQSTTGHCVHMR (UniProt P55795)”, for which the “probe-labelled cysteine peptide fold change” value was -0.0217.
Still for that read-out and setting: for “HSP90AA1_P07900_374_RVFIMDNCEELIPEYLNFIR (UniProt P07900)” the value was -0.472; for “HNRNPU_Q00839_391_TCNCETEDYGEK (UniProt Q00839)”, 0.595.
On the same count and under the same terms, as for “HNRNPUL2_Q1KMD3_57_LQEALDAEMLEDEAGGGGAGPGGACK (UniProt Q1KMD3)”, the figure is -0.306.
As to “HTT_P42858_664_FVLRDEATEPGDQENKPCR (UniProt P42858)”, the “probe-labelled cysteine peptide fold change” value was -0.471.
Same read-out and setting: as for “HNRNPR_O43390_292_GFCFLEYEDHK (UniProt O43390)”, the figure is 0.0189.
In the case of “HSPH1_Q92598_290_LMSSNSTDLPLNIECFMNDK (UniProt Q92598)”, the “probe-labelled cysteine peptide fold change” value is 0.166.
The same measure, in the same setting: as for “HSP90AA1_P07900_529_HGLEVIYMIEPIDEYCVQQLK (UniProt P07900)”, the figure is 0.15; as for “HMOX2_P30519_265_CPFYAAEQDK (UniProt P30519)”, -2.31.
Still for that read-out and setting: as for “HSPA9_P38646_317_CELSSSVQTDINLPYLTMDSSGPK (UniProt P38646)”, the figure is 0.137; as for “HNRNPA1L2_Q32P51_175_GHNCEVR (UniProt Q32P51)”, 0.502; as for “HSPA4_P34932_779_ELTSTCSPIISKPKPK (UniProt P34932)”, -0.751.
For “HSD17B4_P51659_189_SNIHCNTIAPNAGSR (UniProt P51659)”, the “probe-labelled cysteine peptide fold change” value is -0.0136.
“HNRNPU_Q00839_607_AVVVCPK (UniProt Q00839)”: the “probe-labelled cysteine peptide fold change” value was 0.347.
Still for that read-out and setting: as for “HTATIP2_Q9BUP3_90_LDDYASAFQGHDVGFCCLGTTR (UniProt Q9BUP3)”, the figure is 0.00422.
For “HSD17B11_Q8NBQ5_217_TTCLCPNFVNTGFIK (UniProt Q8NBQ5)”, the “probe-labelled cysteine peptide fold change” value was found to be 0.158.
On to “HNRNPUL2_Q1KMD3_602_CDYMDEVTYGELEK (UniProt Q1KMD3)”, for which the “probe-labelled cysteine peptide fold change” value was 0.00664.
